Assay results published in PubChem BioAssay AID2551 (National Center for Advancing Translational Sciences (NCATS), 2010).
The campaign covered roughly 310,000 compounds. About 17,000 (5.5%) were called active. Inconclusive means that the source gave no clear call. Such entries were picked first, then a sample of the others. Calls come from the whole dose curve; as a rule, active = well fitted inhibition curve with a large enough effect; inconclusive = small, poorly fitted or top-dose-only effect, or effect the other way; inactive = no such curve, though single readings can be large or run the other way. Where the call is inconclusive, the potency comes from a doubtful curve fit.

The chains behind the UniProt entries cited, without tags or fusion partners. Where a name states a change or a piece, a line headed by the entry shows the natural chain unless it says otherwise.
UniProt P51450: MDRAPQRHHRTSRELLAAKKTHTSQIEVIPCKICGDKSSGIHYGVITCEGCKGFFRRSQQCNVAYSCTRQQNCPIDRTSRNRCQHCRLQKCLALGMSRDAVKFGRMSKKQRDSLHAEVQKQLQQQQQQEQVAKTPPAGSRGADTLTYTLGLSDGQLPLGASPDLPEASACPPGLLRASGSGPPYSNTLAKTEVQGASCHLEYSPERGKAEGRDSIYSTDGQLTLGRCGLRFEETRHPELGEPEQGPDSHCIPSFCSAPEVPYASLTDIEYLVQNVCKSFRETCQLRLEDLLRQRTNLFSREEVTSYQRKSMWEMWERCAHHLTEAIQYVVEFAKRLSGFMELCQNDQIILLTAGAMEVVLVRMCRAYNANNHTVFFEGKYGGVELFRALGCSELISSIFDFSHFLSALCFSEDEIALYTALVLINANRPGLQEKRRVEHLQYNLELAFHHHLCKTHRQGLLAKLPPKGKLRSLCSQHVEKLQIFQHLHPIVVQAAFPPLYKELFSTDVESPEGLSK

Each compound was assayed against Nuclear receptor ROR-gamma (Mus musculus) (UniProt P51450) (assay: qHTS for inhibitors of ROR gamma transcriptional activity). Details: Drosophila S2 Gal4-RORgamma UAS-luciferase reporter, 20 h; activity change, negative = inhibition: at 53.6 µM (top of the series).
Outline: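 Drosophila Schneider cells stably carrying a metallothionein-driven Gal4 DBD–ROR gamma fusion and a UAS-Photinus luciferase reporter were exposed to compound for 1 hr, then induced with copper sulfate (700 uM final) for 20 hr at ambient temperature before luminescence reading.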
% is set by controls: 0 for no effect and ±100 for the full control effect; potency is the fitted concentration of half-maximal effect.
Note: nearly all actives have a fitted effect of over 60% in size.

| Structure (SMILES) | Potency | activity change, negative = inhibition |
| --- | --- | --- |
| CCc1ccc(CNc2ccc3c(c2)ncn3C(C)(C)C)cc1 | inconclusive: 35.5 µM [inhibitor, single point] | – |
| CCn1c(=O)c(C(=O)NC(C)c2ccccc2)c(O)c2ccccc21 (centres undefined) | inconclusive: 35.5 µM [inhibitor, single point] | – |
| Cc1cc(NS(=O)(=O)c2ccc(NC(=S)NC(=O)c3ccc(F)cc3Cl)cc2)no1 | inconclusive: 35.5 µM [activator, single point] | – |
| O=C(Nc1ccccc1Cc1ccccc1)c1ccccc1NS(=O)(=O)c1ccc(Cl)s1 | inconclusive: 17.8 µM [inhibitor, single point] | – |
| S=c1[nH]nc(COc2ccccc2)n1/N=C/c1ccncc1 | active: 10 µM | – |
| CN1C(C(=O)NCc2ccc(OC(F)(F)F)cc2)CC2Cn3c(nc4cc(Cl)c(Cl)cc43)C21 (centres undefined) | inconclusive: 0.316 µM [activator, full curve, poor fit] | – |
| Cc1ccc(NCc2n[nH]c(=S)n2Cc2ccccc2)cc1Cl | active: 3.98 µM | – |
| O=C(CSCc1ccccc1Cl)NN1C(=O)c2ccccc2C1=O | inactive | – |
| COc1ccc(C(NC=O)c2cc(OC)c(OC)cc2Br)cc1OC (centres undefined) | inactive | – |
| CC(C)CC(C(=O)O)N1C(=O)C2C3C=CC(C2C1=O)C1C(=O)N(C(CC(C)C)C(=O)O)C(=O)C31 (centres undefined) | inactive | – |
| CCc1ccc(NC(=O)Nc2cnccn2)cc1 | inconclusive: 1.26 µM [activator, full curve] | – |
| O=C1NC(=S)S/C1=C\c1ccc2ccccc2c1 | inactive | – |
| CN1C(c2ccccc2)CC(=NO)CC1c1ccccc1 (centres undefined) | inactive | – |
| O=C(CSc1nnc(-c2ccco2)n1-c1ccccc1)N1CCN(C(=O)c2ccco2)CC1 | inactive | – |
| Cc1ccsc1CNS(=O)(=O)c1ccc(F)cc1 | inconclusive: 31.6 µM [activator, single point] | – |
| O=[N+]([O-])c1cc(C(F)(F)F)cc([N+](=O)[O-])c1NCCNC(=S)Nc1cccc(F)c1 | inconclusive: 35.5 µM [activator, single point] | – |
| O=C(CCS(=O)(=O)c1ccc(Cl)cc1)NCCN1C(=O)S/C(=C\c2ccccc2F)C1=O | inconclusive: 35.5 µM [activator, single point] | – |
| COc1ccc(-n2ncc3c(=O)n(CC(=O)Nc4ccc(S(=O)(=O)N5CCOCC5)cc4)cnc32)cc1 | inconclusive: 12.6 µM [activator, partial curve] | – |
| COc1ccc(/C=N/N2CCN(c3ccc(Cl)cc3)CC2)cc1 | – | inactive: -12.1% [at 1.91 µM] |
| COc1ccc(C(=O)Nc2cc3c(cc2N2CCCCC2)n(C)c(=O)n3C)cc1OC | active: 3.55 µM | – |
| O=C1CCCC2=C1C(c1cccc(O)c1)c1c(ccc3ncccc13)N2 (centres undefined) | inconclusive: 10 µM [inhibitor, partial curve] | – |
| Cc1[nH]nc2c1C(C1CC=CCC1)C(C#N)=C(N)O2 (centres undefined) | active: 6.31 µM | – |
| O=C(/C=C/c1c(Cl)cccc1Cl)n1cccn1 | inconclusive: 12.6 µM [inhibitor, partial curve, poor fit] | – |
| O=S(=O)(NCc1c(Cl)cccc1Oc1ccccc1)c1ccc(F)cc1 | inconclusive: 0.1 µM [inhibitor, full curve, poor fit] | – |
| Cc1ccc(-c2nc(CS(=O)(=O)CC(=O)NC3CCC(C)CC3)c(C)o2)cc1 (centres undefined) | inconclusive: 35.5 µM [activator, single point] | – |

| Structure (SMILES) | Potency | activity change, negative = inhibition |
| --- | --- | --- |
| O=C(Cc1ccccc1)NNC(=S)NC(=O)c1cccs1 | inconclusive: 7.94 µM [inhibitor, partial curve, poor fit] | – |
| Cc1ccc(C)c(NC(=O)C(Sc2nnc(-c3cccs3)o2)c2ccccc2)c1 (centres undefined) | inconclusive: 14.1 µM [inhibitor, partial curve, poor fit] | – |
| O=C(NC(=S)NC(c1ccccc1)c1ccncc1)c1ccccc1 (centres undefined) | active: 11.2 µM | – |
| c1coc(CN2CCN(C(c3cccs3)c3nnnn3C3CCCC3)CC2)c1 (centres undefined) | inactive | – |
| Clc1cccc2sc(N3CCCCC3)nc12 | inconclusive: 3.55 µM [activator, single point] | – |
| CCc1nnc(NC(=O)C2c3ccccc3Oc3ccccc32)s1 | active: 11.2 µM | – |
| COc1ccc(NC(=S)N2CCN(C(c3ccccc3)c3ccccc3)CC2)cc1OC | active: 8.91 µM | – |
| C=CCn1c(C2CCCCC2)n[nH]c1=S | active: 3.98 µM | – |
| CCCOCCc1nnc(N)s1 | inactive | – |
| COc1ccc(CN(C)C(=O)C23CC4CC(CC(Cl)(C4)C2)C3)c(OC)c1OC | inconclusive: 35.5 µM [inhibitor, single point] | – |
| O=C1C=CC2=C3c4cc(O)c(O)cc4C[C@]3(O)COC2=C1 | inconclusive: 35.5 µM [inhibitor, single point] | – |
| CCOC(=O)c1csc(NC(=O)CSc2nnnn2-c2cccc(OC)c2)n1 | inconclusive: 35.5 µM [activator, single point] | – |
| Cc1ccccc1Oc1nnc(-c2cccs2)c2ccccc12 | inconclusive: 35.5 µM [activator, single point] | – |
| CCNC(=S)NNC(=O)c1csc(CC)c1 | active: 4.47 µM | – |
| O=C(COc1ccccc1)NCC(=O)N/N=C/c1ccc(O)cc1O | inconclusive: 11.2 µM [inhibitor, single point] | – |
| CC(=O)Cc1ccccc1OC(=O)c1ccco1 | inconclusive: 6.31 µM [inhibitor, single point] | – |
| Cc1scc(-c2n[nH]c(=S)n2Cc2ccccc2)c1C | active: 2.24 µM | – |
| CCOCCOc1cccc(C(=O)NC(c2ccccc2)c2ccccc2)c1 | inactive | – |
| CC(c1ccccn1)N(CCN(C)C)C(=S)Nc1cccc(F)c1 (centres undefined) | inconclusive: 35.5 µM [inhibitor, single point] | – |
| CCCc1nc2c([nH]1)C(c1cccnc1)C(C#N)=C(N)O2 (centres undefined) | inconclusive: 12.6 µM [activator, single point] | – |
| COC(=O)C1=NN(C(C)(C)CC(C)=O)C2C(=O)N(C3CCCCC3)C(=O)C12 (centres undefined) | inactive | – |
| O=[N+]([O-])c1cc(S(=O)(=O)Nc2ccccc2)ccc1N1CCN(c2ccc(O)cc2)CC1 | inconclusive: 35.5 µM [inhibitor, single point] | – |
| COc1ccc(C(=O)CCN2CCN(c3ccc(OC)cc3)CC2)cc1 | inconclusive: 35.5 µM [inhibitor, single point] | – |
| CC(=O)Nc1ccc(OCC(O)CNC2CCCC2)cc1 (centres undefined) | inactive | – |
| CC(C)(C)OC(=O)NCCCCCc1nnc(SCc2ccccc2F)o1 | inconclusive: 12.6 µM [activator, partial curve] | – |

No new results follow: entries from further up.

| Structure (SMILES) | Potency | activity change, negative = inhibition |
| --- | --- | --- |
| CCNC(=S)NNC(=O)c1csc(CC)c1 | active: 4.47 µM | – |
| O=C(COc1ccccc1)NCC(=O)N/N=C/c1ccc(O)cc1O | inconclusive: 11.2 µM [inhibitor, single point] | – |
| CC(=O)Cc1ccccc1OC(=O)c1ccco1 | inconclusive: 6.31 µM [inhibitor, single point] | – |

Next entries

| Structure (SMILES) | Potency | activity change, negative = inhibition |
| --- | --- | --- |
| CCOc1ccccc1CN1CCCC(CNS(=O)(=O)c2ccc(OC)cc2)C1 (centres undefined) | inactive | – |
| C/C(CC(=O)Nc1ccc(N(C)C)cc1)=N\NC(=O)c1ccc(F)cc1 | active: 1.78 µM | – |
| COc1ccc(C(=O)C2CCN(CC(=O)Nc3ccc(C)cc3)CC2)cc1 | inconclusive: 35.5 µM [activator, single point] | – |
| COc1ccc(-c2nc(-c3ccccc3)c(Nc3ccc4ccccc4c3)o2)cc1 | inconclusive: 31.6 µM [inhibitor, single point] | – |
| C=CCOc1cccc(C(=O)/C=C2/C(=O)Nc3ccccc32)c1 | active: 12.6 µM | – |
| FC(F)(F)c1cc(Sc2ccccc2)nc(-c2ccccn2)n1 | active: 11.2 µM | – |
| S=C(N/N=C/c1cccs1)NC1CC2CCC1C2 (centres undefined) | active: 0.794 µM | – |
| S=C(Nc1ccc(Cl)cc1)N(CCCN1CCOCC1)Cc1ccco1 | inactive | – |
| COc1ccc(OCc2nc(-c3ccc(F)c(F)c3)cs2)cc1 | inactive | – |
| Cc1ccccc1C1CC(c2ccccc2)Nc2ncnn21 (centres undefined) | inconclusive: 7.08 µM [inhibitor, full curve, poor fit] | – |
| C#CCNC(=O)C1=C[C@@H](c2csc3ccccc23)C[C@@H](OCc2ccc(CO)cc2)O1 | inconclusive: 15.8 µM [activator, single point] | – |
| Cc1ccc(/C=N/N2CCN(C3c4ccccc4-c4ccccc43)CC2)o1 | inactive | – |
| S=C(NCc1ccco1)N/N=C/c1ccccc1Cl | active: 11.2 µM | – |
| COc1cc(NS(=O)(=O)c2ccc(NC(=O)NC3CCCCC3)cc2)nc(OC)n1 | inconclusive: 0.794 µM [activator, single point] | – |
| COc1ccc(CN(C(=S)Nc2ccccc2)C2CC(=O)N(c3ccc(Cl)cc3)C2=O)cc1 (centres undefined) | inconclusive: 35.5 µM [activator, single point] | – |
| CC(=O)Nc1cccc(Oc2nc(C(F)(F)F)nc3ccccc23)c1 | inactive | – |
| Brc1ccc(-c2noc(COc3ccc4c(c3)CCC4)n2)o1 | inconclusive: 11.2 µM [activator, partial curve] | – |
| COc1ccc(Cc2nn3c(Cn4nnc5ccccc54)nnc3s2)cc1 | inconclusive: 11.2 µM [activator, partial curve, poor fit] | – |
| O=C(COc1ccccc1)Nc1nnc(-c2ccc(Cl)cc2)o1 | active: 7.08 µM | – |
| CC(C(=O)Nc1ccc(O)cc1)c1cccc(C(=O)c2ccccc2)c1 (centres undefined) | inactive | – |
| COc1ccc(-c2noc(CCC(=O)NCCCN3CCN(c4ccccc4F)CC3)n2)cc1 | inconclusive: 12.6 µM [activator, single point] | – |
| CCOc1ccc(NC(=S)N(CCCN2CCOCC2)Cc2cn(C)c3ccccc23)cc1 | active: 12.6 µM | – |
| N[C@@H](Cc1cc(I)c(Oc2ccc(O)c(I)c2)c(I)c1)C(=O)O | inconclusive: 12.6 µM [activator, single point] | – |
| Cc1ccc(OCc2nnc(SCC(=O)Nc3ccc4c(c3)OCCO4)n2Cc2ccco2)cc1 | inconclusive: 14.1 µM [activator, partial curve] | – |
